These are yes or no findings as the source states them, for the method shown. Binding seen in cells or lysates may run through a third protein. Binding calls can cover weak binding; strength is not graded here.

Amino acid sequences for entries named in this document (tags omitted). A change or cut given only in a name is not applied to a line headed by its entry.
UniProt Q8C6B2: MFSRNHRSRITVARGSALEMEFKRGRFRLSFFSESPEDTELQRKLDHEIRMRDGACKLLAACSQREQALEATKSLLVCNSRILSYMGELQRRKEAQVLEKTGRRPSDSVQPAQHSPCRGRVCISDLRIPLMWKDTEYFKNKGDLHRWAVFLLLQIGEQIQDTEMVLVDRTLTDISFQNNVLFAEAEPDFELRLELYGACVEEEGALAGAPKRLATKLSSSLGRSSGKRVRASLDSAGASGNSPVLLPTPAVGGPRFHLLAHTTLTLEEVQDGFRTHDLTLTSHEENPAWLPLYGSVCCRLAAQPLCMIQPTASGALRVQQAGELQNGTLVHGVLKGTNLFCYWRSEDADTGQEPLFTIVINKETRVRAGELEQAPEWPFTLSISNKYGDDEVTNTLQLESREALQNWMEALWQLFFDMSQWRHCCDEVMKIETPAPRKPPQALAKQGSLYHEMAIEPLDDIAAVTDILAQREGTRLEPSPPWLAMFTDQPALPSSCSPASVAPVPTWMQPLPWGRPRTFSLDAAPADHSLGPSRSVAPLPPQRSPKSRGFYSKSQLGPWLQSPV
UniProt P61586: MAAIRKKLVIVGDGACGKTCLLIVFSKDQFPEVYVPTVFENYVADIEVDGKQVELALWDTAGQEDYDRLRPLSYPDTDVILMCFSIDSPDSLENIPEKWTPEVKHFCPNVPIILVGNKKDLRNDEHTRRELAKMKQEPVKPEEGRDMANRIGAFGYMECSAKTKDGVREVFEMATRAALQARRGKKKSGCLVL
UniProt P08134: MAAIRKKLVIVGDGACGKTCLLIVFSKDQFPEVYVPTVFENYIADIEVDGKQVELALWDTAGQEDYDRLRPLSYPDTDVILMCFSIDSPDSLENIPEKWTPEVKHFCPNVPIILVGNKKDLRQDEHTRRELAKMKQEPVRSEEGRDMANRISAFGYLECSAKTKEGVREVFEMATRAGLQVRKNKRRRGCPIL

The target in the experiment is GST-Rhotekin (residues 7-89) (UniProt Q8C6B2). The experiment is described as follows: pull-down; only the target purified.

As for “RhoA from HeLa cell lysates (from UniProt P61586 1-193)”, the binding result is given as “binds”. As for “RhoC from HeLa cell lysates (from UniProt P08134 1-193)”, the binding result is recorded as “binds”.

(Values after paper PMC5425256.)
